Data as given in PubChem BioAssay AID504791 (Drosophila RNAi Screening Center, 2011).

Test: 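Genes of the fly required for silencing by miRNA, siRNA or endo-siRNA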 (primary screen)
System: Drosophila S2-derived reporter cells
Reagent: long dsRNA against Drosophila genes, about 150-250 ng dsRNA per well (siRNA assay); about 80-120 ng (miRNA assay)
Time to read-out: about 5 days (siRNA assay); about 4 days (miRNA assay)
Challenge: copper sulfate induction of reporters: 25 µM (siRNA assay); 200 mM stated (miRNA assay), 1-2 days before reading
Detection: 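Per-well ratio of Renilla over firefly light, expressed relative to that plate's average ratio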
Units: stable assay Renilla, run 1 in luminescence; stable assay firefly, run 1 in luminescence
Rule for the call: 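First-pass picks had plate-scaled ratios over 1.5 for the siRNA assay, over 1.6 for the miRNA assay, or under 0.6; two distinct dsRNAs had to score alike on retest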
The screen tested about 23,000 reagents; this is a random part of those that have a named target and a result. Over the whole deposit, 199 (0.86%) got an active call. 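Plate-scaled ratios behind the calls are not deposited; printed light signals are raw; many rows marked increased or decreased are still called inactive.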 A plus sign joins genes that one reagent is predicted to hit. Not stated in the record: the direction of the score.

gene | dsRNA | stable siRNA reporter change | miRNA reporter change | stable assay Renilla, run 1 | stable assay firefly, run 1 | Outcome
rha | DRSC17044 | – | – | 8775 | 7.29e5 | inactive
CG34260 + cmpy | DRSC11701 | – | – | 8920 | 4.41e5 | inactive
CG34347 | DRSC14047 | – | – | 5996 | 3.20e5 | inactive
CG34347 | DRSC14305 | – | – | 6954 | 3.68e5 | inactive
CG34347 | DRSC15104 | – | – | 6459 | 3.58e5 | inactive
CG34347 | DRSC15105 | – | reporter ratio raised past the hit cutoff | 2875 | 2.27e5 | inactive
CG34347 | DRSC23044 | – | – | 5983 | 3.45e5 | inactive
fabp + sea | DRSC16114 | – | – | 8297 | 5.48e5 | inactive
fabp + sea | DRSC16115 | – | – | 8959 | 5.45e5 | inactive
lolal | DRSC06948 | – | – | 9680 | 3.27e5 | inactive
CG31689 | DRSC00734 | – | – | 7155 | 3.98e5 | inactive
His-Psi:CR31616 + His-Psi:CR31615 | DRSC03760 | – | reporter ratio raised past the hit cutoff | 5530 | 4.66e5 | inactive
CG34188 | DRSC05549 | – | – | 7336 | 3.89e5 | inactive
CG32679 | DRSC17644 | – | – | 5867 | 4.52e5 | inactive
CG10864 | DRSC14273 | – | – | 8223 | 3.14e5 | inactive
wisp | DRSC19703 | – | – | 8269 | 3.26e5 | inactive
wisp | DRSC23092 | – | – | 2692 | 2.79e5 | inactive
CG40053 (retired record) | DRSC20833 | – | – | 3499 | 3.63e5 | inactive
CG15578 | DRSC18066 | – | – | 6623 | 4.20e5 | inactive
CG4991 | DRSC19928 | – | – | 7292 | 4.42e5 | inactive
Cad96Ca | DRSC14220 | – | – | 6687 | 2.79e5 | inactive
Cad96Ca | DRSC16693 | – | – | 6270 | 3.11e5 | inactive
eve | DRSC07614 | – | – | 6826 | 4.81e5 | inactive
Cyp4g15 | DRSC20240 | – | – | 5151 | 3.34e5 | inactive
meru | DRSC09400 | – | – | 5756 | 3.92e5 | inactive
meru | DRSC09899 | – | – | 7255 | 3.49e5 | inactive
meru | DRSC10215 | – | – | 8102 | 3.36e5 | inactive
Ntan1 | DRSC07546 | – | – | 7123 | 4.09e5 | inactive
magu | DRSC06832 | – | – | 7988 | 4.05e5 | inactive
CG17734 | DRSC15256 | – | – | 3888 | 3.07e5 | inactive
CG9917 | DRSC20218 | – | – | 7156 | 5.42e5 | inactive
CG10183 | DRSC14203 | – | – | 7838 | 3.67e5 | inactive
Cyp309a1 | DRSC00747 | – | – | 7500 | 4.47e5 | inactive
CG12093 | DRSC08252 | – | – | 10295 | 4.19e5 | inactive
ND-75 | DRSC18686 | – | – | 6175 | 3.55e5 | inactive
CG17819 | DRSC15279 | – | – | 7438 | 4.34e5 | inactive
CG4744 | DRSC06887 | – | – | 8490 | 5.99e5 | inactive
CycT | DRSC11124 | – | – | 3948 | 1.07e5 | inactive
CycT | DRSC23304 | – | reporter ratio raised past the hit cutoff | 2523 | 1.70e5 | inactive
Gyc88E | DRSC15547 | – | – | 6188 | 3.72e5 | inactive
CG15345 (retired record) | DRSC18030 | – | – | 5035 | 4.66e5 | inactive
CG15345 (retired record) | DRSC22712 | – | – | 4176 | 3.82e5 | inactive
CG18266 | DRSC02659 | – | – | 12014 | 4.31e5 | inactive
CG15878 | DRSC08486 | – | – | 6239 | 3.57e5 | inactive
Abi | DRSC14099 | – | – | 7712 | 4.07e5 | inactive
CG40439 | DRSC22707 | – | – | 4163 | 3.34e5 | inactive
CG13895 | DRSC08365 | – | – | 5474 | 2.94e5 | inactive
CG31999 | DRSC17131 | – | – | 6918 | 4.20e5 | inactive
CG31999 | DRSC17133 | – | – | 7179 | 3.93e5 | inactive
Ubc87F | DRSC16513 | – | – | 9537 | 4.74e5 | inactive
pds5 | DRSC06670 | – | – | 8179 | 5.07e5 | inactive
TfIIA-S-2 | DRSC17791 | – | – | 6139 | 3.67e5 | inactive
Or98P | DRSC22948 | – | – | 5406 | 4.87e5 | inactive
CG10859 | DRSC02110 | – | – | 6900 | 1.35e6 | inactive
Fitm | DRSC09772 | – | – | 7115 | 3.84e5 | inactive
mlt | DRSC06120 | – | – | 7957 | 3.02e5 | inactive
CG14330 | DRSC14809 | – | – | 6852 | 4.29e5 | inactive
CG34106 | DRSC01578 | – | – | 5146 | 3.87e5 | inactive
Phax | DRSC07066 | – | – | 8515 | 4.09e5 | inactive
ProRS-m | DRSC08261 | – | – | 6092 | 3.81e5 | inactive
CG7332 | DRSC20038 | – | – | 7507 | 4.72e5 | inactive
LSm7 | DRSC02251 | – | – | 8379 | 5.49e5 | inactive
Ag5r2 | DRSC19328 | – | – | 4792 | 3.70e5 | inactive
CG34175 | DRSC00424 | reporter ratio lowered past the hit cutoff | – | 9613 | 9.39e5 | inactive
Ir75b | DRSC10189 | – | – | 8509 | 3.87e5 | inactive
CG14546 | DRSC14890 | – | – | 6478 | 2.62e5 | inactive
p38b | DRSC03586 | – | – | 7164 | 4.19e5 | inactive
Gcn2 | DRSC16678 | – | – | 8403 | 4.64e5 | inactive
CG7970 | DRSC08605 | – | – | 8537 | 3.74e5 | inactive
ltl | DRSC10206 | – | – | 6714 | 5.33e5 | inactive
ltl | DRSC10870 | – | – | 6610 | 4.12e5 | inactive
Jhe | DRSC07174 | – | – | 5442 | 2.99e5 | inactive
stumps | DRSC13045 | – | – | 4619 | 3.55e5 | inactive
stumps | DRSC15332 | – | – | 8318 | 3.59e5 | inactive
stumps | DRSC17073 | – | – | 9254 | 4.53e5 | inactive
CG15394 | DRSC00408 | – | – | 7139 | 3.05e5 | inactive
CG32835 (retired record) | DRSC22693 | – | – | 5308 | 5.69e5 | inactive
CG9346 | DRSC04542 | – | – | 7082 | 6.33e5 | inactive
CG32189 | DRSC09511 | – | – | 6832 | 4.23e5 | inactive
hry | DRSC11353 | – | – | 5535 | 2.27e5 | inactive
hry | DRSC23249 | – | – | 3440 | 2.70e5 | inactive
CG31013 | DRSC16542 | – | – | 7418 | 4.22e5 | inactive
CG32036 | DRSC10362 | – | – | 7655 | 4.97e5 | inactive
CG12164 | DRSC06115 | – | – | 25725 | 1.43e6 | inactive
CG12164 | DRSC21777 | – | – | 9282 | 4.77e5 | inactive
Pvf2 | DRSC00968 | – | – | 3339 | 3.54e5 | inactive
Pvf2 | DRSC02283 | – | – | 6792 | 4.02e5 | inactive
nemy | DRSC05357 | – | – | 6204 | 4.67e5 | inactive
nemy | DRSC07262 | reporter ratio lowered past the hit cutoff | – | 4343 | 5.40e5 | inactive
Ndc1 | DRSC15895 | – | – | 12509 | 3.54e5 | inactive
CG8419 | DRSC03087 | – | – | 6439 | 3.73e5 | inactive
mthl14 | DRSC07865 | – | – | 5599 | 3.98e5 | inactive
PIG-X | DRSC22721 | – | – | 4607 | 4.35e5 | inactive
Syn2 | DRSC06902 | – | – | 6804 | 2.61e5 | inactive
CG8051 | DRSC20077 | – | – | 5850 | 3.30e5 | inactive
CG33523 | DRSC09814 | – | – | 5754 | 5.16e5 | inactive
CG33523 | DRSC22155 | – | – | 9107 | 5.08e5 | inactive
CG33108 | DRSC21613 | – | – | 8704 | 5.29e5 | inactive
CG1806 | DRSC19787 | – | – | 7059 | 3.84e5 | inactive
CG12620 | DRSC02177 | – | – | 8175 | 4.17e5 | inactive
prage | DRSC17957 | – | – | 6227 | 2.69e5 | inactive
prage | DRSC17958 | – | – | 6583 | 2.70e5 | inactive
prage | DRSC18490 | – | – | 7114 | 3.48e5 | inactive
prage | DRSC18497 | – | – | 6536 | 4.10e5 | inactive
Spn42Da | DRSC05025 | – | – | 7314 | 4.29e5 | inactive
mod(mdg4) + pre-mod(mdg4)-Z + pre-mod(mdg4)-T | DRSC13477 | – | – | 4708 | 3.14e5 | inactive
mod(mdg4) + pre-mod(mdg4)-Z + pre-mod(mdg4)-T | DRSC17001 | – | – | 7483 | 4.38e5 | inactive
